Measurements as given in patent publication US6063587A, “Water-soluble tetrazolium salt compounds” (Dojindo Laboratories Co., Ltd., priority 1996, dated 2000).

Experiment: Measurement of NADH concentration (absorbance calibration curve)
Settings: 0.1 mM compound, 5 μM 1-methoxy-5-methylphenazinium methosulfate, 5 minutes

O=[N+]([O-])c1ccc(-n2nc(-c3ccc(S(=O)(=O)O)cc3S(=O)(=O)[O-])n[n+]2-c2ccc(I)cc2)c([N+](=O)[O-])c1 [Compound b]
calibration curve between NADH concentration and absorbance (50 mM Tris pH 8.0, 0-50 μl of 5 mM NADH, room temperature): linear calibration curve between NADH concentration and absorbance starting from the origin | detection sensitivity for NADH (Compound a versus Compound b) (50 mM Tris pH 8.0, room temperature): almost the same detection sensitivity
